Results reported in patent US5225583A, “Alkyl-aryl 1,3-propanedione silicone derivative and an external preparation for skin with the derivative compounded therein” (Shiseido Co., Ltd., priority 1991, dated 1993).

Test system: skin
Assay: Test for water resisting property (rate of compound remaining on the skin)
Format: in vivo, human (male panels)
Settings: 3 g in 97 g Silicone KF 56, 2 minutes in water at 30°+2° C.; for Rate of compound remaining on the skin, Average: Average of 10 panels

CCCCC(CC)COC(=O)c1ccc(N(C)C)cc1 (centres unmarked) [Comparison, reference compound]
Rate of compound remaining on the skin, Average: 83.0%
Rate of compound remaining on the skin (Panel A): 82.3%
Rate of compound remaining on the skin (Panel B): 80.6%
Rate of compound remaining on the skin (Panel C): 84.5%
Rate of compound remaining on the skin (Panel D): 79.8%
Rate of compound remaining on the skin (Panel E): 80.3%
Rate of compound remaining on the skin (Panel F): 83.8%
Rate of compound remaining on the skin (Panel G): 89.2%
Rate of compound remaining on the skin (Panel H): 80.4%
Rate of compound remaining on the skin (Panel I): 83.9%
Rate of compound remaining on the skin (Panel J): 85.1%

CCCCC(CC)C(=O)CC(=O)c1cc(CCC[Si](C)(O[Si](C)(C)C)O[Si](C)(C)C)c(OC)c(OC)c1 (centres unmarked) [Compound 5]
Rate of compound remaining on the skin, Average: 100.0%
Rate of compound remaining on the skin (Panel A): 98.6%
Rate of compound remaining on the skin (Panel B): 101.3%
Rate of compound remaining on the skin (Panel C): 98.8%
Rate of compound remaining on the skin (Panel D): 99.9%
Rate of compound remaining on the skin (Panel E): 99.8%
Rate of compound remaining on the skin (Panel F): 99.9%
Rate of compound remaining on the skin (Panel G): 102.5%
Rate of compound remaining on the skin (Panel H): 101.3%
Rate of compound remaining on the skin (Panel I): 97.8%
Rate of compound remaining on the skin (Panel J): 99.8%

COc1cc(C(=O)CC(=O)C(C)(C)C)ccc1OCCC[Si](C)(O[Si](C)(C)C)O[Si](C)(C)C [Compound 2]
Rate of compound remaining on the skin, Average: 99.4%
Rate of compound remaining on the skin (Panel A): 98.9%
Rate of compound remaining on the skin (Panel B): 101.3%
Rate of compound remaining on the skin (Panel C): 98.6%
Rate of compound remaining on the skin (Panel D): 99.3%
Rate of compound remaining on the skin (Panel E): 99.3%
Rate of compound remaining on the skin (Panel F): 98.9%
Rate of compound remaining on the skin (Panel G): 99.3%
Rate of compound remaining on the skin (Panel H): 99.9%
Rate of compound remaining on the skin (Panel I): 98.9%
Rate of compound remaining on the skin (Panel J): 99.4%

COc1cc(C(=O)CC(=O)C(C)(C)C)ccc1OCCC[Si](C)(C)O[Si](C)(C)C [Compound 1]
Rate of compound remaining on the skin, Average: 97.1%
Rate of compound remaining on the skin (Panel A): 97.4%
Rate of compound remaining on the skin (Panel B): 95.7%
Rate of compound remaining on the skin (Panel C): 97.8%
Rate of compound remaining on the skin (Panel D): 97.3%
Rate of compound remaining on the skin (Panel E): 96.5%
Rate of compound remaining on the skin (Panel F): 98.9%
Rate of compound remaining on the skin (Panel G): 95.9%
Rate of compound remaining on the skin (Panel H): 96.8%
Rate of compound remaining on the skin (Panel I): 97.5%
Rate of compound remaining on the skin (Panel J): 96.7%
